Literature values as cited in patent publication US7705017B2, “Compounds for treatment of neurodegenerative diseases” (En Vivo Pharmaceuticals, Inc., priority 2004, dated 2010).

System: Histone Deacetylase-Like Protein (HDLP)
Conditions: HDLP deacetylates histones in vitro

- inhibition of HDAC-like protein (HDLP): inhibited
Compound: O=C(CCCCCCC(=O)Nc1ccccc1)NO [SAHA, suberoylanilide hydroxamic acid]
